Source: PubChem BioAssay AID1224826 (NIAID, 2016)

- Test: 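Knock-downs that raise or lower Tnf reporter signal after endotoxin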 (primary screen)
- Cell system: RAW264.7 G9 macrophages from mouse bearing reporters for p65 (GFP) and the Tnf promoter (mCherry)
- Knock-down reagent: siRNA pool against mouse genes, 100 nM
- Timing: 16 h of LPS stimulation, after 2 days of siRNA transfection
- Treatment: bacterial lipopolysaccharide (Salmonella minnesota R595), 10 ng/ml
- Read-out: 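Nuclear mCherry signal of the Tnf promoter reporter measured by imaging after background removal, scaled to each plate median and turned into robust z-scores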
- Direction: Tnf reporter robust z-score: higher = stronger Tnf promoter reporter signal after LPS
- Active means: 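Called active when robust z-score is at most -1.3, matching the median of the Tlr4 knock-down control, or over 3; control wells and wells with under 50 cells never active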
- Calls: active = Tnf reporter clearly lowered or raised; inactive = no clear change in Tnf reporter
In all, the deposit lists about 17,000 reagents; below is an unselected part. About 1,110 of all reagents (6.6%) were called active. 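Active means lowered or raised reporter signal; replicate intensities are raw and not normalised per plate.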 Unmarked entries are inactive. Not all columns of the deposit are shown.

For Phyhip, how do the results read?
Tnf reporter robust z-score: -1.06; fewer than 50 cells in well: enough cells in well

How did the screen score Defa29?
Tnf reporter robust z-score: 1.15; fewer than 50 cells in well: enough cells in well

How did the screen score Eif3k?
Tnf reporter robust z-score: 2.29; fewer than 50 cells in well: enough cells in well

For Sema3f, how do the results read?
Tnf reporter robust z-score: 0.44; fewer than 50 cells in well: enough cells in well

With Chmp2b, how do the results read?
Tnf reporter robust z-score: 0.34; fewer than 50 cells in well: enough cells in well

What did the screen give for 3300002I08Rik?
fewer than 50 cells in well: fewer than 50 cells per well; well left out of calls

Which result is listed for Pafah2?
Tnf reporter robust z-score: -0.17; fewer than 50 cells in well: enough cells in well

What is on record for Auh?
Tnf reporter robust z-score: -0.83; fewer than 50 cells in well: enough cells in well

What is on record for Col8a1?
Tnf reporter robust z-score: -0.98; fewer than 50 cells in well: enough cells in well

What did the screen give for P4ha3?
fewer than 50 cells in well: fewer than 50 cells per well; well left out of calls

With Apex1, how do the results read?
Tnf reporter robust z-score: 0.71; fewer than 50 cells in well: enough cells in well

What is on record for Fkbp8?
Tnf reporter robust z-score: -0.39; fewer than 50 cells in well: enough cells in well

For Fzd6, how do the results read?
Tnf reporter robust z-score: -0.1; fewer than 50 cells in well: enough cells in well

With Defb6, how do the results read?
Tnf reporter robust z-score: -1.23; fewer than 50 cells in well: enough cells in well

With Duoxa1, what does the deposit list?
Tnf reporter robust z-score: 1.11; fewer than 50 cells in well: enough cells in well

Which result is listed for Ankrd69?
fewer than 50 cells in well: fewer than 50 cells per well; well left out of calls

For Aars1, what was measured?
Tnf reporter robust z-score: 0.63; fewer than 50 cells in well: enough cells in well

What did the screen give for Slc25a24?
Tnf reporter robust z-score: 1.29; fewer than 50 cells in well: enough cells in well

With Ccr6, what does the deposit list?
Tnf reporter robust z-score: -0.22; fewer than 50 cells in well: enough cells in well

For Smyd2, what was measured?
Tnf reporter robust z-score: -0.43; fewer than 50 cells in well: enough cells in well

Which result is listed for Or10u3?
Tnf reporter robust z-score: -0.91; fewer than 50 cells in well: enough cells in well

Just “fewer than 50 cells in well”, for 2 of the entries above:
Ankrd69 = fewer than 50 cells per well; well left out of calls
Aars1 = enough cells in well
